Experimental data from PubChem BioAssay AID1347423 (Functional Genomics Laboratory (NCATS/FGL), 2020).
The campaign covered roughly 52,000 sequences. About 210 (0.4%) were called active.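 The calls were made as follows: active = gene whose silencing raises cell survival under the drug, median off-target-corrected z-score across its silencing RNAs 2 or more; inactive = the rest.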 This is one part of the list.

test: Resistance to Poly (ADP-Ribose) Polymerase inhibitor: Gene Identification via Genome-wide siRNA Screen; details: mouse BRCA2 R2336H ES cells, olaparib, CellTiter-Glo viability; active compounds read high
Method in brief: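 Genome-wide siRNA screen (3 siRNAs/gene, 20 nM) in mouse ES cells carrying hypomorphic BRCA2 R2336H; olaparib 500 nM added 48 h post-transfection, CellTiter-Glo viability 72 h later. Normalized to plate-median negative control; MAD z-scores, gene median, seed-adjusted.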

| Sequence | z-score |
| --- | --- |
| GGCUUUGUUGACCACUCAGTT against Ndst2 | inactive: -0.435 |
| CGGAUUCUAAAUGCUGUAATT against Aox3 | inactive: -0.551 |
| GCAAGAACAUUAUGAAAGUTT against Epb4.1 | inactive: -0.422 |
| GGCAGCUCAGGAAAAUAAATT against Htr4 | inactive: -0.854 |
| GGAUUCACUGUUUUAUUCUTT against Fap | inactive: 0.849 |
| GGAUAGCUUGAUCAAUCUUTT against 1500009M05Rik | inactive: 0.939 |
| CCGAUUGUAUUUCUAUAAGTT against Klf2 | inactive: 1.04 |
| GGGUGAGUUCUUAAGCUCATT against Ndufb2 | inactive: 0.0075 |
| GGGAAAGGAGCCAUUAUUGTT against 2610110G12Rik | inactive: -1.85 |
| GGUGGAACAGUGGAAUUCGTT against Grhpr | inactive: 0.0216 |
| GUUCCCUGCCUGGCAGAAUTT against Foxd2 | inactive: 1.34 |
| CCAGACCUGCGCUUUUUUGTT against Myod1 | inactive: -0.85 |
| GGUACUGGAAGAGGAGGUATT against Ppil3 | inactive: -1.71 |
| GGUCAGCAAAGAAAUCUUCTT against Exosc5 | inactive: -1.56 |
| GGCCAGCAAUAAAACUGUCTT against Max | inactive: -2.41 |
| GGAAUAACAGCCUUGUAUUTT against Slc25a15 | inactive: -0.0616 |
| CGGAUUCAUUCGGAUGUGCTT against Rln1 | inactive: 0.422 |
| GGUGUUUGUGACUCUGGGUTT against Mc4r | inactive: 1.06 |
| GGACCUGCACUUAAUGUUUTT against Gabarap | inactive: -1.03 |
| GGGACUAUGGUGUCAGAAATT against Clecsf10 | inactive: -0.611 |
| CCAAACCCAGUUGCAUUUGTT against Slitrk5 | inactive: -1.43 |
| GCUUAUUCGGGAUAAAGUATT against Elavl1 | inactive: 0.339 |
| GCACGUACCUGAUAGUCCUTT against E330036I19Rik | inactive: 0.126 |
| GGCUAACAUGGUUUUAUAUTT against Cldn1 | inactive: 0.429 |
| GCUCUACGUUGAAGAGCGATT against Mad2l2 | inactive: 1.13 |
| CCUGAAAGAAAAGAAGGACTT against 2610009E16Rik | inactive: -0.282 |

| Sequence | z-score |
| --- | --- |
| CGCAUGUUCAUAGGACUGCTT against Olfr1420 | inactive: -0.137 |
| GCAUCGAUGGACUCUUUAUTT against Fbxo40 | inactive: -2.39 |
| CGGUAUAUAGAUCACUUCUTT against Olfr56 | inactive: -0.919 |
| GGCUAAAGACCAGUAUUUGTT against Cdh7 | inactive: 0.465 |
| CGCAGGUAUACAGGACUGCTT against LOC434768 | inactive: -0.724 |
| GCUAGCGGCAGUAUUCUGUTT against Rab7 | inactive: 0.104 |
| GGCCUUUAGCACCUACAGCTT against Olfr952 | inactive: -0.0308 |
| CCAGAAAGAGAGCUCUAGGTT against Diap1 | inactive: 0.483 |
| GCUCUAUUUUUUCAUCUCCTT against Olfr1415 | inactive: 0.662 |
| GGUCGACAUUGAAGCUAUUTT against 0710005M24Rik | inactive: -0.779 |
| CCAGAGUUUUCGAGGCCAATT against Olfr1349 | inactive: -1.01 |
| GGGUCUGCUACAUCUUCGGTT against AI225782 | inactive: 0.468 |
| GGAGCUAGAGCUGAAGGAUTT against 1810023F06Rik | inactive: -1.31 |
| GGUUUGCACACACUUUGCCTT against Bai2 | inactive: 0.0839 |
| GCUAAUAAAGCAUUCAGCATT against Bivm | inactive: -0.234 |
| GGAUGAAGAGAAAGAGGAATT against Zfpm1 | inactive: -2.42 |
| GCAUCAGCGUAAAAUGAUUTT against B130022O04Rik | inactive: 0.562 |
| GGAACUGAGUAGUCUGAAGTT against Ap4e1 | inactive: -1.62 |
| CGUGUCGCACAGGUACUUUTT against 1810009O10Rik | inactive: 0.463 |
| GGACUGAAGCUGAAUUCCUTT against 0610012G03Rik | inactive: -0.232 |
| GCCGUUGAAAAGGUUGGAUTT against Anp32b | inactive: 0.0472 |
| CCAACCGUUUGCUACUCUUTT against Pgbpll | inactive: 0.877 |
| CCUGGAAUCACACAUACCUTT against Abr | inactive: -0.383 |
| GGUAUUCGUGGUGAUGGAGTT against AI325941 | inactive: 0.629 |
| GGGUAUGUAUUACCUCGAGTT against Erbb3 | inactive: -1.72 |
| GCAUCAUAAUGGGAUGCUGTT against P518 | inactive: 0.226 |

| Sequence | z-score |
| --- | --- |
| GGCAAUCCAGUUAUCCCAGTT against Prlpa | inactive: 0.819 |
| GGCACAGAAAGAGAAAUACTT against Ivd | inactive: 2.91 |
| CCUAGAUAGGCUUGUAGCCTT against Mylpf | inactive: 0.74 |
| GUCCUCCAUGAAGAAGCUCTT against Prm3 | inactive: 0.527 |
| GGAUUCCAAUUUUAUUCCATT against Brca1 | inactive: -2.21 |
| GGAAAAAUGACCACAUACUTT against Gucy1b2 | inactive: 0.000128 |
| GCGAACAGUUGAAUAGAUUTT against 1200007B05Rik | inactive: 0.716 |
| CCUGUGAUGUGAUCAUUAATT against Pigr | inactive: 2.29 |
| GCUACACCGAGGACAGUUUTT against Nid2 | inactive: -1.85 |
| GGGAUUAUGUGUCAUUUGUTT against Amaco | inactive: -0.675 |
| GGAAUCAUUCACAGCAUGUTT against Arhgap15 | inactive: 1.01 |
| GCAUGCUUGGAACAUUCCGTT against Catna3 | inactive: 0.571 |
| CGAUUGCUCUUAACCCUUGTT against Zfp597 | inactive: -1.14 |
| GGAAAUAGCCAGAAUAAGGTT against 1300006M19Rik | inactive: 0.153 |
| GCAGUAGUCUUGGAAUUAATT against Bhlhb3 | inactive: -0.478 |
| GGAUCUUACAGUCAGAGAGTT against Cdh4 | inactive: 1.32 |
| GGCGAAUGGGAUUUCUAUUTT against 1700016F23Rik | inactive: 0.701 |
| CGCACACACUGAACUUUAATT against Slco1a1 | inactive: 0.784 |
| GUAGAAACUUCUCGUUCACTT against Tcl1b3 | inactive: 0.549 |
| GGAGAUAUUAUUGUUCAGATT against Tmem2 | inactive: 0.226 |
| GCCAAGCAUUAAGUGAUAATT against Setmar | inactive: -0.538 |
| GAUCUCAGCGGUUCUAUAGTT against 2310034L04Rik | inactive: 2.44 |
| CCCGUCACAUCUCAUUCCATT against Tpmt | inactive: 0.127 |
| GGCAGCAUUAUCAACCGGATT against Rgs19ip3 | inactive: -0.177 |
| CCCAAGAGUGUUUGAGAACTT against Zfp297b | inactive: 0.0814 |
| GCUGAGACUAAACAUUGUATT against 2610008E11Rik | inactive: 0.118 |

| Sequence | z-score |
| --- | --- |
| GGAGCUGAAGAUCAAGGAGTT against Pkn3 | inactive: 1.12 |
| GGAAAUGAUCCAUCAACUCTT against Lgr7 | inactive: -0.388 |
| GGAUUUCUACAGGGUGUAUTT against Trim8 | inactive: -0.361 |
| GGAGACUCUCACCUAUCAUTT against Doc2g | inactive: 1.08 |
| CCUCUCCUUCUUAGACAUGTT against Olfr724 | inactive: 0.947 |
| CGACAUGUACGCUUUUUGUTT against E430004F17Rik | inactive: -0.362 |
| GCACGAGAUUGACUUGCCUTT against D18Ertd653e | inactive: 0.0698 |
| GCCAUCGUGCGCAUGAUUUTT against Gstz1 | inactive: -0.315 |
| GGUGUUCUCGGUUUGAUCCTT against A930026L03Rik | inactive: -0.904 |
| GGAUGGUGUUGUGUUUAAATT against Chst2 | inactive: 1.58 |
| CCUUCGAAUCUGAAACCUUTT against Slc27a3 | inactive: -0.0884 |
| GGCCUGUGAUCAGAUGUACTT against 2900010M23Rik | inactive: -0.0114 |
| CCUACCAGUUCCUAUUUAGTT against Alas2 | inactive: -1.14 |
| CGGUCAAUACAAAUGCACUTT against Fcrh3 | inactive: -0.334 |
| GCUAUCACUUUUCAUUAGATT against G0s2 | inactive: 1.47 |
| GCAUCUGUAAAUCUUUAGCTT against Gpr85 | inactive: 0.596 |
| GCACUUUGGCAUAUUUUCATT against Slc6a15 | inactive: 1.16 |
| CGAGAUGAAUUUCUAGUAGTT against Tubgcp3 | inactive: -0.252 |
| GGAAGAAUUCUCAAAGAAUTT against 1200016D23Rik | inactive: 0.309 |
| GGUGAAGAGUAAGAUCUUGTT against Gga1 | inactive: 0.691 |
| GGACGGUCAUGUCUAUGAATT against Pglyrp1 | inactive: 0.417 |
| GGUGAUCUGAUAGUCAGAUTT against BB128963 | inactive: 0.0602 |
| GGUUUUAAUUGUUCAGACGTT against Lrrtm3 | inactive: 0.563 |
| GGUGGAAAUUUUCAGAGAATT against 4933411G06Rik | inactive: 1.02 |
| UAUGUUGGAGCCUAUGUUCTT against 5930434B04Rik | inactive: -1.39 |
| GGACACCAAAAAUGUAAACTT against 4933411K20Rik | inactive: -0.579 |

In a second layout: results already given.
GGUGAAGAGUAAGAUCUUGTT against Gga1
  z-score: inactive: 0.691
GGACGGUCAUGUCUAUGAATT against Pglyrp1
  z-score: inactive: 0.417
GGUGAUCUGAUAGUCAGAUTT against BB128963
  z-score: inactive: 0.0602
GGUUUUAAUUGUUCAGACGTT against Lrrtm3
  z-score: inactive: 0.563
